# Assay results taken from patent publication US20070122448A1, “Compositions and methods to create a vascularized environment for cellular transplantation” (priority 2005, published 2007).
# Test: Total drug content of support loaded with HIF-1 alpha hydroxylase inhibitor, release into DI-water overnight, HPLC
# Type: physicochemical
# Conditions: 8 mm disc in 0.5 ml DI-water overnight
# Procedure: 8 mm discs were prepared from the foam sheet described in Example 1 and placed in a 2 ml glass vial containing 0.5 ml of DI-water. The vial was then sealed and placed on a shaker overnight to ensure complete release of the drug content from the support into the solvent. The following day the support was removed from the vial and the solution was analyzed via HPLC to determine the total drug content. A C-18 column was used with a mobile phase composed of 50% methanol, and 50% water (pH=2.7; H2SO4). The flow rate was controlled at 1 ml/min. The injection volume was 10 μl and detection was done at 254 nm. The run time of the method was 30 minutes. A stock solution was prepared by dissolving the drug in pure water and stored in the refrigerator in an amber flask. The standard solutions were prepared by serial dilution of the stock solution. […] Linearity and reproducibility were assessed by duplicate injections of four standards.
smiles,measurement,setting,value
"CCOC(=O)c1ccc(O)c(O)c1 [ethyl-3,4-dihydroxybenzoate]",Total Drug content detected,200 μg drug added per 10 cm × 10 cm support sheet,0.39 ng/8 mm support
same,Total Drug content detected,2000 μg drug added per 10 cm × 10 cm support sheet,10.0 ng/8 mm support
same,Total Drug content detected,"20,000 μg drug added per 10 cm × 10 cm support sheet",92.7 ng/8 mm support
